Measured values: publication PMC9743594
Results are given in words; binding and its absence hold for the method and conditions named. Binding seen in cells or lysates may run through a third protein. Some results given as binding are weak or reduced against the parent protein; the word gives no strength.

Sequences of proteins named here, by UniProt entry; tags and fusion partners are left off. Residues count along the entry.
UniProt P22695, residues 15-453: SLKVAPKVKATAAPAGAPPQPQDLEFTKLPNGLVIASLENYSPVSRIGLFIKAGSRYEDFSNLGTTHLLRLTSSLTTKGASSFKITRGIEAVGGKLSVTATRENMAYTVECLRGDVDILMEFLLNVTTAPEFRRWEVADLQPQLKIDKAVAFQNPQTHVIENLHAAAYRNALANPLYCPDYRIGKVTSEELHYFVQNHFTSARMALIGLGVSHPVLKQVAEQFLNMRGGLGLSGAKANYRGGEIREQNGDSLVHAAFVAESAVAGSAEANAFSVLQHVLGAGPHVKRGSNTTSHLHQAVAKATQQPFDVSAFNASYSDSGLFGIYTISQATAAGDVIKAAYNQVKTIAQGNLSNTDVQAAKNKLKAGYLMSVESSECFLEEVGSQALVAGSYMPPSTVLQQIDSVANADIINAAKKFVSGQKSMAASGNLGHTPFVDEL
UniProt P47985, residues 79-274: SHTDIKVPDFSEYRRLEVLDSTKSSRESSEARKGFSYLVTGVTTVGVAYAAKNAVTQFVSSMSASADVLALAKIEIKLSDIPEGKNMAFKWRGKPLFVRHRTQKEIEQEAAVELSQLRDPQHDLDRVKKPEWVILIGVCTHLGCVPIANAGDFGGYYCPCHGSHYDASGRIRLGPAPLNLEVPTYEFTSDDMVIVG

Key:
[1] = molecular target: UQCRC2 (endogenous), complex III core component (human (endogenous in HeLa, HCT116, PEA1)) (UniProt P22695); assay: proximity ligation; Duolink in situ PLA on fixed, permeabilised HeLa cells (control, TRAP1-GFP expressing, shGFP/shTRAP1); standard medium, galactose in place of glucose (4.5 g/L) for 4 h, or low glucose (1 g/L) for 4 h
[2] = molecular target: UQCRFS1/Rieske protein (endogenous), catalytic subunit of complex III (human (endogenous in HeLa, PEA1)) (UniProt P47985); assay: proximity ligation; Duolink in situ PLA on fixed, permeabilised PEA1 cells; negative control with TRAP1 antibody only
[3] = molecular target: UQCRFS1/Rieske protein (endogenous), catalytic subunit of complex III (human (endogenous in HeLa, PEA1)) (UniProt P47985); assay: proximity ligation; Duolink in situ PLA on fixed, permeabilised HeLa cells (control, TRAP1-GFP expressing, shGFP/shTRAP1); standard medium, galactose in place of glucose (4.5 g/L) for 4 h, or low glucose (1 g/L) for 4 h

binding [1]	binding [2]	binding [3]	Molecule
binds	–	–	UQCRFS1/Rieske protein (endogenous), catalytic subunit of complex III (from UniProt P47985 79-274)
–	no binding	no binding	TRAP1 (endogenous) (protein, UniProt Q12931 60-704) STQTAEDKEEPLHSIISSTESVQGSTSKHEFQAETKKLLDIVARSLYSEKEVFIRELISNASDALEKLRHKLVSDGQALPEMEIHLQTNAEKGTITIQDTGIGMTQEELVSNLGTIARSGSKAFLDALQNQAEASSKIIGQFGVGFYSAFMVADRVEVYSRSAAPGSLGYQWLSDGSGVFEIAEASGVRTGTKIIIHLKSDCKEFSSEARVRDVVTKYSNFVSFPLYLNGRRMNTLQAIWMMDPKDVREWQHEEFYRYVAQAHDKPRYTLHYKTDAPLNIRSIFYVPDMKPSMFDVSRELGSSVALYSRKVLIQTKATDILPKWLRFIRGVVDSEDIPLNLSRELLQESALIRKLRDVLQQRLIKFFIDQSKKDAEKYAKFFEDYGLFMREGIVTATEQEVKEDIAKLLRYESSALPSGQLTSLSEYASRMRAGTRNIYYLCAPNRHLAEHSPYYEAMKKKDTEVLFCFEQFDELTLLHLREFDKKKLISVETDIVVDHYKEEKFEDRSPAAECLSEKETEELMAWMRNVLGSRVTNVKVTLRLDTHPAMVTVLEMGAARHFLRMQQLAKTQEERAQLLQPTLEINPRHALIKKLNQLRASEPGLAQLLVDQIYENAMIAAGLVDDPRAMVGRLNELLVKALERH
